Our source for the binding values is paper PMC10501992, “How Pol α-primase is targeted to replisomes to prime eukaryotic DNA replication” (Molecular Cell, 2023).

The target of the assay is T1, MCM5 (human) (human) (UniProt P33992).
T1 sequence: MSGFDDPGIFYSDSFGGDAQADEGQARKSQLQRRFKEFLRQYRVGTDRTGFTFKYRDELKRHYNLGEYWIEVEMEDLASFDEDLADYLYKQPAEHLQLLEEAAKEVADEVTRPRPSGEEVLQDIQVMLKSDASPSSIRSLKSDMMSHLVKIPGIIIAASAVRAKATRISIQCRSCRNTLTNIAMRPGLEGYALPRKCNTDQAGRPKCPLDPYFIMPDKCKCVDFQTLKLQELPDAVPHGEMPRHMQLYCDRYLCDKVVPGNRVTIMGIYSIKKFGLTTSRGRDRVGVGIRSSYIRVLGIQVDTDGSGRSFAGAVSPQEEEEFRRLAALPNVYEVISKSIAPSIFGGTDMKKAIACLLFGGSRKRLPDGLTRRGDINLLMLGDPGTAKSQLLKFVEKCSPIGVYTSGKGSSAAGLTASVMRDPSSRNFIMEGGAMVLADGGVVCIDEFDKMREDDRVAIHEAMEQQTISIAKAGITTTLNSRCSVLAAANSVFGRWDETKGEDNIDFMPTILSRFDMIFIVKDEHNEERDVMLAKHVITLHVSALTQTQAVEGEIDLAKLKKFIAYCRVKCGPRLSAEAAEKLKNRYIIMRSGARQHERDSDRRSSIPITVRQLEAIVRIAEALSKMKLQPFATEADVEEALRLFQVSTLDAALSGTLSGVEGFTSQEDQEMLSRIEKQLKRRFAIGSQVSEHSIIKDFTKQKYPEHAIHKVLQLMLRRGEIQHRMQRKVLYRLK
The assay is described as follows: cryo-EM structure; human replisome: 150 nM CMG on fork DNA (60 nt or 15 nt 5′ flap) with 1.5-fold molar excess of AND-1, TIMELESS-TIPIN, CLASPIN and Pol α-primase; 25 mM HEPES-NaOH pH 7.6, 150 mM NaOAc, 0.5 mM TCEP, 500 μM AMP-PNP, 10 mM Mg(OAc)2, on ice; 10-30% glycerol gradient with glutaraldehyde and BS3 cross-linkers; both purified.

These are yes or no findings as the source states them, for the method shown.

B1: PRIM2 (human primase accessory subunit) (natural protein)
chain: MEFSGRKWRKLRLAGDQRNASYPHCLQFYLQPPSENISLIEFENLAIDRVKLLKSVENLGVSYVKGTEQYQSKLESELRKLKFSYRENLEDEYEPRRRDHISHFILRLAYCQSEELRRWFIQQEMDLLRFRFSILPKDKIQDFLKDSQLQFEAISDEEKTLREQEIVASSPSLSGLKLGFESIYKIPFADALDLFRGRKVYLEDGFAYVPLKDIVAIILNEFRAKLSKALALTARSLPAVQSDERLQPLLNHLSHSYTGQDYSTQGNVGKISLDQIDLLSTKSFPPCMRQLHKALRENHHLRHGGRMQYGLFLKGIGLTLEQALQFWKQEFIKGKMDPDKFDKGYSYNIRHSFGKEGKRTDYTPFSCLKIILSNPPSQGDYHGCPFRHSDPELLKQKLQSYKISPGGISQILDLVKGTHYQVACQKYFEMIHNVDDCGFSLNHPNQFFCESQRILNGGKDIKKEPIQPETPQPKPSVQKTKDASSALASLNSSLEMDMEGLEDYFSEDS
notes: PRIM2, human; modelled residues 1-5 (N terminus) and 17-252 (NTD); stood in the assay as a subunit of m18; also called PRIM2NTD; PRIM2_(Nterm)
Turning to B1, the binding result was “no binding”.
